No constants are given. Whether binding was seen depends on the method and setting. Binding seen in cells or lysates may run through a third protein. Some binding calls cover weakened binding; strength is not graded here. Sequences can lack the tags named with a protein.
Biological target: T1, EGFP fusion of mouse PDZ-K1 (NHERF3) (mouse) (UniProt Q9JIL4)
T1 sequence: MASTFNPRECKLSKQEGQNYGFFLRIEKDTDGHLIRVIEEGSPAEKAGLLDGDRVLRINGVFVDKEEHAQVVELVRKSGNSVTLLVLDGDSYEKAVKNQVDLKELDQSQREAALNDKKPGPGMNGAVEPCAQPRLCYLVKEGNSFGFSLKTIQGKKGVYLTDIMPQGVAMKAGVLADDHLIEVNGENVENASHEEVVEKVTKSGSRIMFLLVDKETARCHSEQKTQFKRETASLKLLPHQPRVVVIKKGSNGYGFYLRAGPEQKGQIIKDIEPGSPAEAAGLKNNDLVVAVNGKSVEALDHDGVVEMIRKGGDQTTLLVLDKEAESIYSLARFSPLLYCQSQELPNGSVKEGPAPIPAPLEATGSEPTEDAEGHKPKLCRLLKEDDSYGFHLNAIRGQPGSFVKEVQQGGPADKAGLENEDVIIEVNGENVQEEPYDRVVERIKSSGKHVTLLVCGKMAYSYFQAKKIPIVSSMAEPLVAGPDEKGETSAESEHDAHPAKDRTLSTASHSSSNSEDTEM
Experiment: co-IP; mRFP-tagged SSTR5 coexpressed with GFP-tagged PDZ proteins; lysis in RIPA buffer; precipitation with GFP-trap beads, 2 h at 4°C; Western blot

binding: binds
B1: mRFP-tagged mouse somatostatin receptor subtype 5 (wild type) (receptor, UniProt O08858 1-362)
chain: MEPLSLTSTPSWNASAASSSSHNWSLVDPVSPMGARAVLVPVLYLLVCTVGLGGNTLVIYVVLRYAKMKTVTNVYILNLAVADVLFMLGLPFLATQNAVSYWPFGSFLCRLVMTLDGINQFTSIFCLMVMSVDRYLAVVHPLRSARWRRPRVAKLASAAVWVFSLLMSLPLLVFADVQEGWGTCNLSWPEPVGLWGAAFITYTSVLGFFGPLLVICLCYLLIVVKVKAAGMRVGSSRRRRSERKVTRMVVVVVLVFVGCWLPFFIVNIVNLAFTLPEEPTSAGLYFFVVVLSYANSCANPLLYGFLSDNFRQSFRKALCLRRGYGVEDADAIEPRPDKSGRPQTTLPTRSCEANGLMQTSRL

— article PMC3921201
